Assay results taken from patent publication US9357924B2, “Composition, method, system and kit for optical electrophysiology” (The Research Foundation of State University of New York, priority 2006, dated 2016).
“And” between values parts separate entries of the source, which are not always exact repeats. Identical values can stand only once.

How the values were obtained:
rat heart cardiac tissue = assay: Optical action potential recording in Langendorff-perfused rat heart (Tyrode's solution); settings: processed signals, mean ± SD
Method: (§1) The dye testing experiments were performed on typical model animals: mice (n=6), rat (n=11), guinea pig (n=6), pig (n=13). All experimental protocols conformed to the Guide for the Care and Use of Laboratory Animals and were approved by the Committee for the Humane Use of Animal of the SUNY Upstate Medical University. Mice (C57BL/6, 20-25 g) were injected with ketamine (200 mg/kg IP), rats (Sprague Dawley, 300-400 g female) and guinea pigs were injected with heparin (550 U/100 g), and euthanized by sodium phentobarbital (1 ml/100 g for rats and 0.75 ml/100 g for guinea pigs). The heart was then immediately excised and placed in ice-cold cardioplegia solution (CPS) composed of (in mmol/l) 280 Glucose, 13.44 KCl, 12.6 NaHCO3, 34 Mannitol. […] Perfusion and superfusion temperatures were continuously monitored and kept at 36±1° C. by using two sets of glass heating coils and heated-refrigerated circulators. […]
(§2) After a 20-30 min stabilization period during which the perfusion flow and ECG was monitored, the excitation-contraction uncoupler diacetyl-monoxime (DAM) was added to the perfusate (15 mmol/l) to stop contractions of cardiac tissue. […]

[1] = tested on: guinea pig heart cardiac tissue; assay: Optical action potential recording in Langendorff-perfused guinea pig heart (Tyrode's solution); settings: processed signals, mean ± SD
Method: as §1, §2

[2] = tested on: pig cardiac tissue (right free ventricular wall); assay: Optical action potential recording in Tyrode-perfused pig right ventricular wall preparation
Method: as §1, §2

[3] = tested on: mouse heart cardiac tissue; assay: Optical action potential recording in Langendorff-perfused mouse heart (Tyrode's solution); settings: processed signals, mean ± SD
Method: as §1, §2

## CCCCN(CCCC)c1ccc2cc(/C=C/C=C/c3cc[n+](CCC[N+](C)(C)C)c4ccccc34)ccc2c1.[Br-].[Br-] [JPW6003, Di-4-ANBDQPQ]
Rat heart cardiac tissue
  S/N (maximal OP signal to noise ratio): 670 ± 70 and 760 ± 80
[1]
  S/N (maximal OP signal to noise ratio): 715 ± 80 and 960 ± 95
[2]; pig tissue, Tyrode-perfused, epifluorescence
  S/N (maximal OP signal to noise ratio): 1000 ± 100 and 850 ± 90
[2]; pig, transillumination mode
  S/N (maximal OP signal to noise ratio): 24 ± 2.2
[3]
  S/N (maximal OP signal to noise ratio): 490 ± 50 and 530 ± 55
